PubChem BioAssay AID1259254 – NCATS, 2017

- Assay: 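Genome-wide screen for genes that prevent DNA re-replication in cancer cells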 (primary screen)
- Cell system: human HCT116 colorectal cancer cells
- Knock-down reagent: single siRNA against human genes
- Duration: 3 days
- Measurement: 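Nuclei stained with Hoechst and imaged; cell-cycle phase assigned by DNA content; G2 share scaled per plate, non-targeting siRNA 0%, GMNN siRNA 100%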
- Scale: G2 robust z-score and G2 cells, % of GMNN control: higher = more G2 cells, more excess DNA replication; raw share of cells in G2: higher = larger share of cells with G2 DNA content
- Active means: 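An siRNA counts as active if its G2 robust z-score lies at least 5 MADs above the screen median; here such calls match roughly 38% of GMNN control or more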
In all, the deposit lists about 59,000 reagents; shown is a random part of them. About 1,550 of all reagents (2.6%) count as active. 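G2 share is only a proxy for re-replication; each gene was hit by three separate siRNAs, and active genes were retested.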 The raw values are shown without normalisation. The record does not give: the amount of reagent.

The first 6 entries, to show the layout:
no.	Target gene	PubChem SID	G2 robust z-score	G2 cells, % of GMNN control	raw share of cells in G2 (%)	Outcome
1	SLC35G5	SID160751278	8.05	59.6	23.9	active
2	SLC35G5	SID160751279	0.693	7.84	5.78	inactive
3	SLC35G5	SID160751280	-0.877	-3.2	1.43	inactive
4	MAGI3	SID160762646	-1.17	-5.28	3.94	inactive
5	MAGI3	SID160762647	0.0393	3.24	6.37	inactive
6	MAGI3	SID160762648	-0.0209	2.82	4.59	inactive

Main list, from the start:
no.	Target gene	PubChem SID	G2 robust z-score	G2 cells, % of GMNN control	raw share of cells in G2 (%)	Outcome
1	SLC35G5	SID160751278	8.05	59.6	23.9	active
2	SLC35G5	SID160751279	0.693	7.84	5.78	inactive
3	SLC35G5	SID160751280	-0.877	-3.2	1.43	inactive
4	MAGI3	SID160762646	-1.17	-5.28	3.94	inactive
5	MAGI3	SID160762647	0.0393	3.24	6.37	inactive
6	MAGI3	SID160762648	-0.0209	2.82	4.59	inactive
7	SIRT6 (sirtuin 6)	SID160724423	-0.601	-1.26	3.32	inactive
8	SIRT6 (sirtuin 6)	SID160740982	-0.536	-0.805	3.95	inactive
9	SIRT6 (sirtuin 6)	SID160740983	2.87	23.1	16.5	inactive
10	DHH (desert hedgehog signaling molecule)	SID160731339	-1.23	-5.71	3.57	inactive
11	DHH (desert hedgehog signaling molecule)	SID160739756	-0.548	-0.888	4.59	inactive
12	DHH (desert hedgehog signaling molecule)	SID160739757	0.0194	3.1	5.07	inactive
13	DEFB134 (defensin beta 134)	SID160733705	6.12	46	18.8	active
14	DEFB134 (defensin beta 134)	SID160768377	0.441	6.07	5.97	inactive
15	DEFB134 (defensin beta 134)	SID160768378	0.028	3.16	4.62	inactive
16	LILRA6 (leukocyte immunoglobulin like receptor A6)	SID160748733	0.339	5.35	6.91	inactive
17	LILRA6 (leukocyte immunoglobulin like receptor A6)	SID160748734	1.43	13	10.4	inactive
18	LILRA6 (leukocyte immunoglobulin like receptor A6)	SID160748735	1.22	11.5	5.74	inactive
19	CTXN3 (cortexin 3)	SID160768379	-0.591	-1.19	3.16	inactive
20	CTXN3 (cortexin 3)	SID160768380	-0.993	-4.02	1.89	inactive
21	CTXN3 (cortexin 3)	SID160768381	-0.544	-0.857	2.83	inactive
22	BRD1 (bromodomain containing 1)	SID160736872	-0.16	1.84	4.8	inactive
23	BRD1 (bromodomain containing 1)	SID160736873	-1.09	-4.69	2.45	inactive
24	BRD1 (bromodomain containing 1)	SID160736875	-0.208	1.5	6.85	inactive
25	FER1L6-AS1 (FER1L6 antisense RNA 1)	SID160767643	-0.91	-3.43	2.56	inactive
26	FER1L6-AS1 (FER1L6 antisense RNA 1)	SID160767644	-0.158	1.86	4.25	inactive
27	FER1L6-AS1 (FER1L6 antisense RNA 1)	SID160767645	0.739	8.17	8.18	inactive
28	REDIC1 (regulator of DNA class I crossover intermediates 1)	SID160762925	-0.336	0.601	3.86	inactive
29	REDIC1 (regulator of DNA class I crossover intermediates 1)	SID160762926	0.757	8.29	6.25	inactive
30	REDIC1 (regulator of DNA class I crossover intermediates 1)	SID160762927	0.345	5.39	4.91	inactive
31	KRTAP20-1 (keratin associated protein 20-1)	SID160725060	4.12	32	15	inactive
32	KRTAP20-1 (keratin associated protein 20-1)	SID160725061	0.735	8.14	6.82	inactive
33	KRTAP20-1 (keratin associated protein 20-1)	SID160727984	1.12	10.9	8.57	inactive
34	FLJ38576	SID160734115	1.44	13.1	6.66	inactive
35	FLJ38576	SID160770611	1.21	11.5	8.33	inactive
36	FLJ38576	SID160770614	0.831	8.82	6.42	inactive
37	STKLD1 (serine/threonine kinase like domain containing 1)	SID160760346	2.96	23.8	12.1	inactive
38	STKLD1 (serine/threonine kinase like domain containing 1)	SID160760348	2.74	22.2	10.4	inactive
39	STKLD1 (serine/threonine kinase like domain containing 1)	SID160760349	0.172	4.18	4.08	inactive
40	LEKR1 (leucine, glutamate and lysine rich 1)	SID160766122	-0.357	0.459	3.93	inactive
41	LEKR1 (leucine, glutamate and lysine rich 1)	SID160766123	0.808	8.65	7.17	inactive
42	LEKR1 (leucine, glutamate and lysine rich 1)	SID160766124	-0.87	-3.15	3.28	inactive
43	GYPC (glycophorin C (Gerbich blood group))	SID160774758	-0.135	2.02	6.25	inactive
44	GYPC (glycophorin C (Gerbich blood group))	SID160774759	0.243	4.68	5.8	inactive
45	GYPC (glycophorin C (Gerbich blood group))	SID160774760	0.698	7.88	6.61	inactive
46	AK4 (adenylate kinase 4)	SID160715999	-0.298	0.87	5.89	inactive
47	AK4 (adenylate kinase 4)	SID160716010	0.376	5.61	7.3	inactive
48	AK4 (adenylate kinase 4)	SID160716020	-0.128	2.06	4.75	inactive
49	AK4 (adenylate kinase 4)	SID160765698	-0.706	-2	3.09	inactive
50	AK4 (adenylate kinase 4)	SID160765699	1.63	14.5	9.69	inactive
51	AK4 (adenylate kinase 4)	SID160765700	-0.185	1.67	5.35	inactive
52	PPP2CA (protein phosphatase 2 catalytic subunit alpha)	SID160714783	0.364	5.53	6.59	inactive
53	PPP2CA (protein phosphatase 2 catalytic subunit alpha)	SID160714784	0.751	8.25	6.79	inactive
54	PPP2CA (protein phosphatase 2 catalytic subunit alpha)	SID160714785	0.409	5.85	5.26	inactive
55	DIRC1 (disrupted in renal carcinoma 1)	SID160755327	-0.589	-1.17	3.62	inactive
56	DIRC1 (disrupted in renal carcinoma 1)	SID160755328	3.48	27.5	11.5	inactive
57	DIRC1 (disrupted in renal carcinoma 1)	SID160755329	-0.558	-0.958	1.54	inactive
58	FAM245A (family with sequence similarity 245 member A)	SID160771594	0.196	4.35	5.19	inactive
59	FAM245A (family with sequence similarity 245 member A)	SID160771595	-0.146	1.94	3.56	inactive
60	FAM245A (family with sequence similarity 245 member A)	SID160771596	-0.345	0.542	3.81	inactive
61	HEY1	SID160730854	0.204	4.4	8.14	inactive
62	HEY1	SID160736324	0.988	9.92	7.26	inactive
63	HEY1	SID160736325	-0.24	1.28	4.58	inactive
64	UBA2 (ubiquitin like modifier activating enzyme 2)	SID160724617	1.47	13.3	7.75	inactive
65	UBA2 (ubiquitin like modifier activating enzyme 2)	SID160724627	3.66	28.8	16.4	inactive
66	UBA2 (ubiquitin like modifier activating enzyme 2)	SID160724637	-0.672	-1.76	4.54	inactive
67	EEIG1 (estrogen-induced osteoclastogenesis regulator 1)	SID160766824	0.763	8.34	6.84	inactive
68	EEIG1 (estrogen-induced osteoclastogenesis regulator 1)	SID160766825	-0.559	-0.965	3.13	inactive
69	EEIG1 (estrogen-induced osteoclastogenesis regulator 1)	SID160766827	-0.226	1.38	5.36	inactive
